Laboratory results published in publication PMC11338267, “Phosphoglycerate kinase is a central leverage point in Parkinson’s disease–driven neuronal metabolic deficits” (Science Advances, 2024).
No constants are given. Whether binding was seen depends on the method and setting. Binding seen in cells or lysates may run through a third protein. Some entries that bind do so weakly or less than the wild type. Where a sequence is shown, tags or fusion partners need not be part of it.

Sequences of proteins named here, by UniProt entry; tags and fusion partners are left off.
UniProt Q99497: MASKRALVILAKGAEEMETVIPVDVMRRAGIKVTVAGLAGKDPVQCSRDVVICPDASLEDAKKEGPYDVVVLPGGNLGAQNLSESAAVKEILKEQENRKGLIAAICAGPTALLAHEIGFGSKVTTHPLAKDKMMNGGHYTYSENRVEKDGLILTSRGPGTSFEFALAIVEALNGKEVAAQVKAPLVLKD

Biological target: T1, PGK1-HA (UniProt P00558)
T1 sequence: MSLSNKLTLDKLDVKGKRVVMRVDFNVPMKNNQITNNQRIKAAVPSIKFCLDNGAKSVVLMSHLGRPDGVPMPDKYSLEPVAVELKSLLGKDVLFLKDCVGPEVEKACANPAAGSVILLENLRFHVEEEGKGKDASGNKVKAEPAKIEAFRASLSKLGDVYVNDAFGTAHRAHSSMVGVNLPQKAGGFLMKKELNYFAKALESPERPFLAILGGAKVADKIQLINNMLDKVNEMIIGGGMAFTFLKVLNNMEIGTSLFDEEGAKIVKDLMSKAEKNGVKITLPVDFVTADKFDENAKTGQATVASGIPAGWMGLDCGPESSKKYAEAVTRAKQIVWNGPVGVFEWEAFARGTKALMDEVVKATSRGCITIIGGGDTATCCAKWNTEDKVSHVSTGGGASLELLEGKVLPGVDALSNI
Experiment: co-IP; from human embryonic kidney cells with Pierce Anti-HA Agarose; Western blotting

DJ-1 in human embryonic kidney-293T cells (from UniProt Q99497 1-189)
binding: binds
